Values quoted from earlier work in patent publication US6919370B2, “Pharmaceutical formulations comprising paclitaxel, derivatives, and pharmaceutically acceptable salts thereof” (TransForm Pharmaceuticals, Inc., priority 2000, dated 2005).

In the case of `CC(=O)O[C@H]1C(=O)[C@@]2(C)[C@H]([C@H](OC(=O)c3ccccc3)[C@]3(O)C[C@H](OC(=O)[C@H](O)[C@@H](NC(=O)c4ccccc4)c4ccccc4)C(C)=C1C3(C)C)[C@]1(OC(C)=O)CO[C@@H]1C[C@@H]2O` [Paclitaxel, paclitaxel], the solubility in water is given as “practically insoluble”.
